Laboratory results reported in the supplement of paper PMC11732987, “Enantioselective OTUD7B fragment discovery through chemoproteomics screening and high-throughput optimisation” (Communications Chemistry, 2025).
Some of the results follow. The data scatter; read single values as rough.

Protein sequences, listed by entry. Tags and fused reporters are not part of them. Lines headed by an entry give the natural chain unless they say otherwise; changes in a name come on top.
UniProt Q9H6D7: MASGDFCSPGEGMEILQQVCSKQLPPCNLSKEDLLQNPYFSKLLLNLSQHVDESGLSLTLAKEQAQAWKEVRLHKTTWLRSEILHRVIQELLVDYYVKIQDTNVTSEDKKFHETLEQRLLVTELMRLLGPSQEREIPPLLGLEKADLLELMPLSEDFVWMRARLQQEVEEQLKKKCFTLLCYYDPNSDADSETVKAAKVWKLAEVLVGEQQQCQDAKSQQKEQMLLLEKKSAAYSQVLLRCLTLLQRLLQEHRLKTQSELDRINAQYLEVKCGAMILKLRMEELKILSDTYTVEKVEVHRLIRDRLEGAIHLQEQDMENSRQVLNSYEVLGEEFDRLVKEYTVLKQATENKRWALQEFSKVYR
UniProt P35914: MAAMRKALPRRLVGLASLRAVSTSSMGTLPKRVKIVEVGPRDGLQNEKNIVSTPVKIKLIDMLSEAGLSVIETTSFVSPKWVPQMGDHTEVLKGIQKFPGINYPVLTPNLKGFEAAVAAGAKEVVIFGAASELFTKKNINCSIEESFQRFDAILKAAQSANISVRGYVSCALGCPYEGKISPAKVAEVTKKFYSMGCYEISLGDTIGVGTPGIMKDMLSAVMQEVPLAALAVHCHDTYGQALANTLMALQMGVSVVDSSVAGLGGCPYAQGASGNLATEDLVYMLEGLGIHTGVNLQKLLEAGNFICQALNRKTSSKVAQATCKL
UniProt Q8WW33: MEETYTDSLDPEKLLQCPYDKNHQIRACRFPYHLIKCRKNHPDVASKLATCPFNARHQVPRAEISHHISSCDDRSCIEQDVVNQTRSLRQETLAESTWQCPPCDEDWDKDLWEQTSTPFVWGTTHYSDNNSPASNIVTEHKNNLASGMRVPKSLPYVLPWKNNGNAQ
UniProt P30519: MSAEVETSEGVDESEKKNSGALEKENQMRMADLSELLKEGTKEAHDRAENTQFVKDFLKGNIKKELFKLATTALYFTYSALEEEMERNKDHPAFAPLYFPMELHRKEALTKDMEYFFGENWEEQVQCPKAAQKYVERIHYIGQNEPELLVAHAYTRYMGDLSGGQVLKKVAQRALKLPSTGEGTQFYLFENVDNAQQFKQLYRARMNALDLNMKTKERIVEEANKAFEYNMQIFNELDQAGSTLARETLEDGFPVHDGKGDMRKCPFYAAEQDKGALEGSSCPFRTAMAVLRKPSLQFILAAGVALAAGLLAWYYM
UniProt O14929: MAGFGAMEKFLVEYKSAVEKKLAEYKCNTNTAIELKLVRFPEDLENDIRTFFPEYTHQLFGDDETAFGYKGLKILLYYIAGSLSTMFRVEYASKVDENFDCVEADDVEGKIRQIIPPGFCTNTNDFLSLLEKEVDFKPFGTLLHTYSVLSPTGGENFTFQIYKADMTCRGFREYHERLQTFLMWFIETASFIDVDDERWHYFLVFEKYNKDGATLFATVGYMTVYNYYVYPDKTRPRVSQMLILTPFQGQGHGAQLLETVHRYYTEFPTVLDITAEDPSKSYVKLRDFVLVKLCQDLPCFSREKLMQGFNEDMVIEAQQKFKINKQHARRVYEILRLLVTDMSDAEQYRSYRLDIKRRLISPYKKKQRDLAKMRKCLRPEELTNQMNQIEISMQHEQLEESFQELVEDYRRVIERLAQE
UniProt O00178: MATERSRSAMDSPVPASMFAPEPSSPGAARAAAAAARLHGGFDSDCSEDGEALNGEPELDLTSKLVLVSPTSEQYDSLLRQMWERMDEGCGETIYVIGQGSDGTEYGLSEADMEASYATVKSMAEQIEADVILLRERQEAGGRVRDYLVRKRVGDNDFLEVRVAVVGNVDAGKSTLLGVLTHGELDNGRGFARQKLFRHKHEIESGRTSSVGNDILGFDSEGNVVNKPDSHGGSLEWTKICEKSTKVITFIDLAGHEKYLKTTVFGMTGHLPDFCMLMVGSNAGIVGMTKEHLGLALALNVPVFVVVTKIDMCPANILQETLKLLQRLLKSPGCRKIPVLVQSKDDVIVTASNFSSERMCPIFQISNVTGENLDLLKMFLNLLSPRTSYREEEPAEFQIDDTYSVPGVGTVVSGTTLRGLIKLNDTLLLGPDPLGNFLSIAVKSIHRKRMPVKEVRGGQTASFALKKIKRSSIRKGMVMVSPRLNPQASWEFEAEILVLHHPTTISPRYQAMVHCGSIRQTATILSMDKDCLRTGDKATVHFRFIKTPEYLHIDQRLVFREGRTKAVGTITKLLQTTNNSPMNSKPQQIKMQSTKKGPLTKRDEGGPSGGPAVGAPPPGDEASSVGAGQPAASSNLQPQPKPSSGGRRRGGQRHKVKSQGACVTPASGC
UniProt Q9BW71: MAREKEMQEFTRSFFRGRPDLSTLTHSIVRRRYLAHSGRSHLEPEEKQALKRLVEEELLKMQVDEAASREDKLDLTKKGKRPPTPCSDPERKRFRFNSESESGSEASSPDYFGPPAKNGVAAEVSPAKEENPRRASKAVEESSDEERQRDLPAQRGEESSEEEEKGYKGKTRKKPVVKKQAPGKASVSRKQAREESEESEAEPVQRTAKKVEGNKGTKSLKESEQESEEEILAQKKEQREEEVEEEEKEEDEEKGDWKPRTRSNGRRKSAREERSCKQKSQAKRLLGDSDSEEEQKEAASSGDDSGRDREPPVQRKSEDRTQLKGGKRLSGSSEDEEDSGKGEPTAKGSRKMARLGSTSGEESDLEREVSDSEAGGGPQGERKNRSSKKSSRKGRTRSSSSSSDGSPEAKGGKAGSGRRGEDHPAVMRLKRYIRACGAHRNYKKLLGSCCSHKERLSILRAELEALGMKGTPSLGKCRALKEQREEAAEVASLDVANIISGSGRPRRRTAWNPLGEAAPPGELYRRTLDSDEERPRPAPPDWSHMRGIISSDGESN
UniProt P31943: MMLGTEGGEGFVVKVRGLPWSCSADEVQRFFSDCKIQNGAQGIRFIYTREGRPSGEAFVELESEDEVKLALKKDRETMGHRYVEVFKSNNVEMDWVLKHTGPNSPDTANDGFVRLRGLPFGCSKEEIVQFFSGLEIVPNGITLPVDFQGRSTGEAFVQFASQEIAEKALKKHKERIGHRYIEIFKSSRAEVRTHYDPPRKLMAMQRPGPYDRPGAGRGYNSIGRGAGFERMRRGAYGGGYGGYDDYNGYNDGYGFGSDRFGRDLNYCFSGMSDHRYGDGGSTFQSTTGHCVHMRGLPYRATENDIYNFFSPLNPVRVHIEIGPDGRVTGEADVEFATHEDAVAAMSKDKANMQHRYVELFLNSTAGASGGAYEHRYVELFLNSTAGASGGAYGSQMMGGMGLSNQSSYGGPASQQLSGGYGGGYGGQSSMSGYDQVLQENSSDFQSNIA
UniProt Q8WVV9: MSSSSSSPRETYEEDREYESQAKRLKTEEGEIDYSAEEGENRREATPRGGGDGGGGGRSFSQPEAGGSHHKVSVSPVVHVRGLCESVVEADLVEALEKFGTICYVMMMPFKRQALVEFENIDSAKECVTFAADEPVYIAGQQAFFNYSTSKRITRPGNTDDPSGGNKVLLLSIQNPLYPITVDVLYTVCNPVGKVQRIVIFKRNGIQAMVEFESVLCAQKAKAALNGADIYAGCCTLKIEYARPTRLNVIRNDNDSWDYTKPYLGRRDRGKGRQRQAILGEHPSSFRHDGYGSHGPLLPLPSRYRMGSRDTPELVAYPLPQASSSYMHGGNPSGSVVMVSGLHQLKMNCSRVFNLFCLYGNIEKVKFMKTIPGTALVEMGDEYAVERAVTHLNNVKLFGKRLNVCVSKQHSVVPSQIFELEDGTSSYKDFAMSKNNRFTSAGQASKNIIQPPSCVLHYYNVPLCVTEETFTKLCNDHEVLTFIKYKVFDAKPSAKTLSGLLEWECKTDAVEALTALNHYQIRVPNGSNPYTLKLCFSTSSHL
UniProt Q9NYZ3: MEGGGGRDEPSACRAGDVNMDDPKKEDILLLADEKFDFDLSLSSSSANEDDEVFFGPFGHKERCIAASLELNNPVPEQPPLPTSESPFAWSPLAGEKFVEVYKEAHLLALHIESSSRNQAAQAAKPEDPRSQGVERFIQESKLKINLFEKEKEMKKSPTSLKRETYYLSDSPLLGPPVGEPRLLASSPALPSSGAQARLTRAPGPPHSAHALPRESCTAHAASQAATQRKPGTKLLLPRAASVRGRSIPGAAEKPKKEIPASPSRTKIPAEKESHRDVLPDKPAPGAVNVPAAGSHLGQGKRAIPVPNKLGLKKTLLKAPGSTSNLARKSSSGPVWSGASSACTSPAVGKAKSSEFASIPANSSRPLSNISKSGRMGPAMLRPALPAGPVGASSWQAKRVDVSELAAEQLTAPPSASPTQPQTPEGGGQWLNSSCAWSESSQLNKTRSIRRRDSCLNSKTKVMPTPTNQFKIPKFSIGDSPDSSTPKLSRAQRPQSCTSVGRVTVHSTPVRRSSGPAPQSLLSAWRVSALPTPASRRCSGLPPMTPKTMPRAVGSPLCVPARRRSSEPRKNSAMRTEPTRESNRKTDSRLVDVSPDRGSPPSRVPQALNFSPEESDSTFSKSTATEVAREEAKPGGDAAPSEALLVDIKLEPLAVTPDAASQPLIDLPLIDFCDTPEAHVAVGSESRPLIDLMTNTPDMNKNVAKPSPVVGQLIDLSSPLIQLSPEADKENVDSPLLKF
UniProt Q7Z4H7: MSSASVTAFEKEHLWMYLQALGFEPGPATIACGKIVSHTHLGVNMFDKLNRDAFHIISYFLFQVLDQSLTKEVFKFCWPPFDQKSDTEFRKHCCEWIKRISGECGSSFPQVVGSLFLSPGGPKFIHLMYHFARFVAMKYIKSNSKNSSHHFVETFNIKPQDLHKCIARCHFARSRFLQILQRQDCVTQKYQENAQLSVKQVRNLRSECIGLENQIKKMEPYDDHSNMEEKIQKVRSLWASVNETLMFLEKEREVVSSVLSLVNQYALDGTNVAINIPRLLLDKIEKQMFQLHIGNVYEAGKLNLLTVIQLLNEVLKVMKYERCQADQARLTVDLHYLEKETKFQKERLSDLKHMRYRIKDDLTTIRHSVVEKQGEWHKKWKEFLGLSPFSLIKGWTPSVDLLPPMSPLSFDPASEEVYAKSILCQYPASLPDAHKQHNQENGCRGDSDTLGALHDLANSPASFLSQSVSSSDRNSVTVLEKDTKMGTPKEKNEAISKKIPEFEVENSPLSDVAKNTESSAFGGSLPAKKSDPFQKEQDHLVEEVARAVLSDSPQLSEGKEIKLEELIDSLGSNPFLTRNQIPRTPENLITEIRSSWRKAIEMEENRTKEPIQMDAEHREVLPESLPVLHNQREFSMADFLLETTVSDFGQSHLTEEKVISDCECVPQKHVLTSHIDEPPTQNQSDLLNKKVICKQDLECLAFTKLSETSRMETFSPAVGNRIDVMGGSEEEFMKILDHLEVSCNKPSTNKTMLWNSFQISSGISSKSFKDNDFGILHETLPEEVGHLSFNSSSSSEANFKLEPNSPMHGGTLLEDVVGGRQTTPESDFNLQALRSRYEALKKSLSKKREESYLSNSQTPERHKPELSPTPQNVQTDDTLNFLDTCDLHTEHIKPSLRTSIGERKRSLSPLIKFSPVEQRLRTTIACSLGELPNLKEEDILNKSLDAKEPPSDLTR
UniProt Q14527: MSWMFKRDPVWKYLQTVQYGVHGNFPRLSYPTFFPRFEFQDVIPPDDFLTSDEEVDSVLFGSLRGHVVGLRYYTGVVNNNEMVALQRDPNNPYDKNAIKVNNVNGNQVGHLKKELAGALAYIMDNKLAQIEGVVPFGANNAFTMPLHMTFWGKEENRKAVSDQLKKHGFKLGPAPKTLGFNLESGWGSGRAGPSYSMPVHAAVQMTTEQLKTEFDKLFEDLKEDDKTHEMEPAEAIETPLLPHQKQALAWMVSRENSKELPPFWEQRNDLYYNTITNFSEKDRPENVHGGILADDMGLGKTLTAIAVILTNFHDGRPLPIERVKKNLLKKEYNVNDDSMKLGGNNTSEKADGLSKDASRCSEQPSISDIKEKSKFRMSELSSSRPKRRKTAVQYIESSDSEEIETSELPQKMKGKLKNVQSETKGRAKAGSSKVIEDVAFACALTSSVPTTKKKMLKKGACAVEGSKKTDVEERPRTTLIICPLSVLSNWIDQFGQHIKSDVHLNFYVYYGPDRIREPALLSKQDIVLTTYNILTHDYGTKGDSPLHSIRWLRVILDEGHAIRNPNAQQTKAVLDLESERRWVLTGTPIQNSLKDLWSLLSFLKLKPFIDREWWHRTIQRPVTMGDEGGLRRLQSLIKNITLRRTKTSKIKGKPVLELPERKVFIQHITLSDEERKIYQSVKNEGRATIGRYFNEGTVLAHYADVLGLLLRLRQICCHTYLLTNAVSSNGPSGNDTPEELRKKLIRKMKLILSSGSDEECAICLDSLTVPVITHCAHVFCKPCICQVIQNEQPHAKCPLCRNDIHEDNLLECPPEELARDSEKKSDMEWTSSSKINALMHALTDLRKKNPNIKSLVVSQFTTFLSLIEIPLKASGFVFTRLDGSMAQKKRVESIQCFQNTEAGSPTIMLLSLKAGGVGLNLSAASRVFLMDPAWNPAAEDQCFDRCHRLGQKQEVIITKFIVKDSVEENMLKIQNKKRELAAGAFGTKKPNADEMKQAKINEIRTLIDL

Tests used:
[1] = compound: ClCC(=O)N[C@@H]1CCCc2ccccc12; test: log2 mean competition ratio of IA-DTB cysteine labelling (DMSO/compound) (log2 ratio); higher = stronger cysteine engagement by compound; details: treatment time: 4 h, cell line lysate: HEK293T
Procedure: (§1)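 IA-DTB competitive cysteine chemoproteomics in HEK293T RIPA lysate. Lysates were treated with compound 29 or 30 at 50 or 200 µM for 4 h, then IA-DTB (500 µM, 1 h), trypsin-digested, NeutrAvidin-enriched and analysed by diaPASEF. Competition ratio = intensity DMSO / intensity compound (n=4 treated, n=64 DMSO); binding: mean log2 CR ≥ 1 and p ≤ 0.05 plus QC filters. Target is the cysteine site.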

[2] = compound: ClCC(=O)N[C@H]1CCCc2ccccc12; test: as above; details: treatment time: 4 h, cell line lysate: HEK293T
Procedure: as §1

Target: HELB C60 (UniProt Q8NG08)
- log2 mean competition ratio ([1]; 50 µM): 0.00259
- log2 mean competition ratio ([1]; 200 µM): 0.135
- log2 mean competition ratio ([2]; 50 µM): -0.285
- log2 mean competition ratio ([2]; 200 µM): 0.214

Target: HAUS4 C213 (UniProt Q9H6D7)
- log2 mean competition ratio ([1]; 50 µM): -0.452
- log2 mean competition ratio ([1]; 200 µM): 0.163
- log2 mean competition ratio ([2]; 50 µM): -0.626
- log2 mean competition ratio ([2]; 200 µM): -0.00721

Target: HOXA5 C103
- log2 mean competition ratio ([1]; 50 µM): -0.0609
- log2 mean competition ratio ([1]; 200 µM): -0.0308
- log2 mean competition ratio ([2]; 50 µM): 0.169
- log2 mean competition ratio ([2]; 200 µM): -0.22

Target: HMGCL C323 (UniProt P35914)
- log2 mean competition ratio ([1]; 50 µM): -0.1
- log2 mean competition ratio ([1]; 200 µM): 0.0864
- log2 mean competition ratio ([2]; 50 µM): 0.0354
- log2 mean competition ratio ([2]; 200 µM): 0.11

Target: GTSF1 C51 (UniProt Q8WW33)
- log2 mean competition ratio ([1]; 50 µM): -0.129
- log2 mean competition ratio ([1]; 200 µM): -0.45
- log2 mean competition ratio ([2]; 50 µM): 0.163
- log2 mean competition ratio ([2]; 200 µM): -0.123

Target: HMOX2 C282 (UniProt P30519)
- log2 mean competition ratio ([1]; 50 µM): 0.541
- log2 mean competition ratio ([1]; 200 µM): 1.67
- log2 mean competition ratio ([2]; 50 µM): 0.861
- log2 mean competition ratio ([2]; 200 µM): 1.74

Target: HAT1 C27 (UniProt O14929)
- log2 mean competition ratio ([1]; 50 µM): -0.0581
- log2 mean competition ratio ([1]; 200 µM): -0.107
- log2 mean competition ratio ([2]; 50 µM): 0.0502
- log2 mean competition ratio ([2]; 200 µM): 0.164

Target: GTPBP1 C531 (UniProt O00178)
- log2 mean competition ratio ([1]; 50 µM): -0.359
- log2 mean competition ratio ([1]; 200 µM): 0.224
- log2 mean competition ratio ([2]; 50 µM): -0.0202
- log2 mean competition ratio ([2]; 200 µM): 0.196

Target: HIRIP3 C86 (UniProt Q9BW71)
- log2 mean competition ratio ([1]; 50 µM): -0.00312
- log2 mean competition ratio ([1]; 200 µM): 0.335
- log2 mean competition ratio ([2]; 50 µM): -0.204
- log2 mean competition ratio ([2]; 200 µM): 0.209

Target: HNRNPH1 C122 (UniProt P31943)
- log2 mean competition ratio ([1]; 50 µM): -0.291
- log2 mean competition ratio ([1]; 200 µM): -0.948
- log2 mean competition ratio ([2]; 50 µM): 0.182
- log2 mean competition ratio ([2]; 200 µM): -0.722

Target: HNRNPLL C84 (UniProt Q8WVV9)
- log2 mean competition ratio ([1]; 50 µM): 0.252
- log2 mean competition ratio ([1]; 200 µM): -0.221
- log2 mean competition ratio ([2]; 50 µM): 0.357
- log2 mean competition ratio ([2]; 200 µM): -0.358

Target: GTSE1 C436 (UniProt Q9NYZ3)
- log2 mean competition ratio ([1]; 50 µM): 0.0865
- log2 mean competition ratio ([1]; 200 µM): 0.248
- log2 mean competition ratio ([2]; 50 µM): 0.0609
- log2 mean competition ratio ([2]; 200 µM): 0.258

Target: HAUS6 C743 (UniProt Q7Z4H7)
- log2 mean competition ratio ([1]; 50 µM): 0.00729
- log2 mean competition ratio ([1]; 200 µM): 0.315
- log2 mean competition ratio ([2]; 50 µM): -0.196
- log2 mean competition ratio ([2]; 200 µM): -0.133

Target: HLTF C442 (UniProt Q14527)
- log2 mean competition ratio ([1]; 50 µM): -0.223
- log2 mean competition ratio ([1]; 200 µM): 0.241
- log2 mean competition ratio ([2]; 50 µM): -0.676
- log2 mean competition ratio ([2]; 200 µM): 0.215
